Results are given in words; binding and its absence hold for the method and conditions named. Some binding calls cover weakened binding; strength is not graded here. Sequences can lack the tags named with a protein.

The target in assay [1] is T1, FLAG-tagged SRSF3, P84103.
T1 chain: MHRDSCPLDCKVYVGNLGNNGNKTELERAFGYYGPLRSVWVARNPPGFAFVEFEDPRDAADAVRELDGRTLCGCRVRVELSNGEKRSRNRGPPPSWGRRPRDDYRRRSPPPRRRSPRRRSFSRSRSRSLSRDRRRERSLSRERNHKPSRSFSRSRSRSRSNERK
As to the kind of experiment: pull-down. To be noted: remark: other sources report otherwise.

The target of the next assay is T2, GST-tagged SRSF3, P84103.
T2 chain: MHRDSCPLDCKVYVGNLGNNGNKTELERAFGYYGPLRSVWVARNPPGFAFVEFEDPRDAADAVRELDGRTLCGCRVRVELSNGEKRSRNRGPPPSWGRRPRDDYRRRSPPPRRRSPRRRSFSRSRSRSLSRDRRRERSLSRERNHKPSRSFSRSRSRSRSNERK
As to the kind of experiment: pull-down. To be noted: remark: other sources report otherwise.

B1: HIS-tagged Aurora-A, O14965 1-403 (enzyme)
chain: MDRSKENCISGPVKATAPVGGPKRVLVTQQFPCQNPLPVNSGQAQRVLCPSNSSQRIPLQAQKLVSSHKPVQNQKQKQLQATSVPHPVSRPLNNTQKSKQPLPSAPENNPEEELASKQKNEESKKRQWALEDFEIGRPLGKGKFGNVYLAREKQSKFILALKVLFKAQLEKAGVEHQLRREVEIQSHLRHPNILRLYGYFHDATRVYLILEYAPLGTVYRELQKLSKFDEQRTATYITELANALSYCHSKRVIHRDIKPENLLLGSAGELKIADFGWSVHAPSSRRTTLCGTLDYLPPEMIEGRMHDEKVDLWSLGVLCYEFLVGKPPFEANTYQETYKRISRVEFTFPDFVTEGARDLISRLLKHNPSQRPMLREVLEHPWITANSSKPSNCQNKESASKQS
On to B1, for which the binding entry in assay [1] was “binds”; in the assay with GST-tagged SRSF3, P84103 it was “binds”.

Values taken from paper doi:10.1101/2020.11.04.368498.
